For at least one entry, the source does not settle the construct or the ends of the probe.
Molecular target: VEGF-sR2 (VEGF soluble receptor 2) (UniProt P35968)
Assay: binding assay
Conditions: T=BzdU; consecutive dC pairs replaced by BrdC in variants; photocrosslink to 100 nM protein tested for BrdC pair variants; purified recombinant protein; label: 32P; single-stranded DNA

The chains behind the UniProt entries cited, without tags or fusion partners. Residues count along the entry.
UniProt P35968, 20-764: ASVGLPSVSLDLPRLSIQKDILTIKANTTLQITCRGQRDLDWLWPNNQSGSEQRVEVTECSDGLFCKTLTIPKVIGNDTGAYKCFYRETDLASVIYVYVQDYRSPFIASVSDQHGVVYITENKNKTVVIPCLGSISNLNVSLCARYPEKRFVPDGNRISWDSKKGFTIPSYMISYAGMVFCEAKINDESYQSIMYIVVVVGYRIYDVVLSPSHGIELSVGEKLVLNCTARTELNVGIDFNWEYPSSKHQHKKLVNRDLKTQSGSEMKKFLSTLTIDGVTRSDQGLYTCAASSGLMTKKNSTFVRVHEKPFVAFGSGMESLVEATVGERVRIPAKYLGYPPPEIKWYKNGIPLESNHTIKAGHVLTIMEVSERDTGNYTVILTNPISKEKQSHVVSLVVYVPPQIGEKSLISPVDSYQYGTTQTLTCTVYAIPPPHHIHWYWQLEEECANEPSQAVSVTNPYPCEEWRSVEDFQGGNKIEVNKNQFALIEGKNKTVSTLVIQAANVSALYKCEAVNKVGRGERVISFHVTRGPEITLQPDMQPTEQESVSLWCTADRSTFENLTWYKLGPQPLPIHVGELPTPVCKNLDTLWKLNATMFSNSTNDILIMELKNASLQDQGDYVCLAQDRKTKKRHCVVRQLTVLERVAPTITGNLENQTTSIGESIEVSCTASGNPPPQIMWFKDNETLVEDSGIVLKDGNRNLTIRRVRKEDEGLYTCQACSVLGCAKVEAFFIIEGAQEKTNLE

Q: Does “CCGTATGCCGCCGTCGGCGTTTTAAGACCTTAG [1546-23 (variable region)]” bind?
A: Result: binds

From US20090098549
